At least one peptide structure holds a part that was inferred or is arguable (an end, a ring closure or a residue). Residues, ends and D or L forms follow the SMILES beside them. *: point of attachment. Dansyl = CN(C)c1cccc2c(S(=O)(=O)*)cccc12
How the values were obtained:
[1] = molecular target: T1, non-aggregated peptides derived from the precursor protein PAP (prostatic acid phosphatase) (Homo sapiens, UniProt P15309); experiment: Dansyl fluorescence binding study with non-aggregated PAP peptides; conditions: dansylated peptide, change in Dansyl fluorescence
T1 construct: non-aggregated peptides derived from the precursor protein PAP
T1 sequence (P15309 248-286 limits assumed): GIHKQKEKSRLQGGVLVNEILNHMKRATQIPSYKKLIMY

[2] = molecular target: T2, SEVI (aggregated semen enhancer of virus infection) (Homo sapiens, UniProt P15309); experiment: Dansyl fluorescence binding study with SEVI; conditions: dansylated peptide, change in Dansyl fluorescence, FIG. 2B
T2 construct: SEVI is the aggregated portion of the human protein that promotes infectivity
T2 sequence (P15309 248-286 limits assumed): T1 sequence (P15309 248-286 limits assumed)
Protocol: FIG. 1A is a graph of fluorescence spectra of a first dansylated peptide according to the present invention in a binding study with PAP and SEVI at a first concentration;
FIG. 1B is a graph of fluorescence spectra of the first dansylated peptide according to the present invention in a binding study with PAP and SEVI at a first concentration incubated for 24 hours;
FIG. 2A is a graph of fluorescence spectra of a first dansylated peptide according to the present invention in a binding study with PAP and SEVI at a second concentration; and
FIG. 2B is a graph of fluorescence spectra of a second dansylated peptide according to the present invention in a binding study with PAP and SEVI at a second concentration.
Dansyl is the fluorescent dye that is attached to peptides. A change in Dansyl fluorescence indicates change in the environment, i.e. binding. The physiological concentration of PAP and SEVI is 5 micromolar.

Row | SMILES | binding to non-aggregated peptides derived from PAP [1] | binding to aggregated SEVI [2]
1 | CC[C@H](C)[C@H](NC(=O)[C@H](CCC(=O)O)NC(=O)[C@H](CCC(N)=O)NC(=O)[C@@H](NC(=O)[C@@H](NC(=O)[C@H](CCC(=O)O)NC(=O)[C@H](CCC(=O)O)NC(=O)[C@H](Cc1ccccc1)NS(=O)(=O)c1cccc2c(N(C)C)cccc12)[C@@H](C)CC)C(C)C)C(=O)N[C@@H](CCC(=O)O)C(=O)N[C@@H](CC(=O)O)C(=O)N[C@@H](Cc1ccccc1)C(=O)N[C@@H](CC(C)C)C(=O)N[C@@H](CCC(=O)O)C(=O)N[C@@H](CC(N)=O)C(=O)N[C@@H](CC(C)C)C(=O)N[C@H](C(N)=O)C(C)C [Peptide 1, FEEIVQEIEDFLENLV] (Dansyl-FEEIVQEIEDFLENLV-NH2) | not to non-aggregated peptides derived from the precursor protein PAP | 
2 | CC[C@H](C)[C@H](NC(=O)CNS(=O)(=O)c1cccc2c(N(C)C)cccc12)C(=O)NCC(=O)N[C@@H](C)C(=O)N[C@H](C(=O)N[C@@H](CC(C)C)C(=O)N[C@@H](CCC(=O)O)C(=O)N[C@H](C(=O)N[C@@H](CC(C)C)C(=O)N[C@H](C(=O)N[C@H](C(=O)NCC(=O)N[C@@H](CC(C)C)C(=O)N1CCC[C@H]1C(=O)N[C@@H](C)C(=O)N[C@@H](CC(C)C)C(=O)N[C@H](C(=O)N[C@@H](CO)C(=O)N[C@@H](Cc1c[nH]c2ccccc12)C(=O)N[C@H](C(=O)N[C@@H](CCC(=O)O)C(=O)N[C@@H](CCC(=O)O)C(=O)N[C@@H](CCC(=O)O)C(=O)N[C@@H](CCC(=O)O)C(=O)N[C@@H](CCC(N)=O)C(=O)N[C@@H](CCC(N)=O)C(N)=O)[C@@H](C)CC)[C@@H](C)CC)[C@@H](C)O)[C@@H](C)O)C(C)C)C(C)C [Peptide 2] | not to the non-aggregated peptides derived from the precursor protein | binds to both aggregated SEVI (with higher affinity)
